Measured values published in the supplement of paper PMC10849652.
The other results are listed elsewhere or left out.

The chains behind the UniProt entries cited, without tags or fusion partners. Where a name states a change or a piece, a line headed by the entry shows the natural chain unless it says otherwise.
UniProt O95453: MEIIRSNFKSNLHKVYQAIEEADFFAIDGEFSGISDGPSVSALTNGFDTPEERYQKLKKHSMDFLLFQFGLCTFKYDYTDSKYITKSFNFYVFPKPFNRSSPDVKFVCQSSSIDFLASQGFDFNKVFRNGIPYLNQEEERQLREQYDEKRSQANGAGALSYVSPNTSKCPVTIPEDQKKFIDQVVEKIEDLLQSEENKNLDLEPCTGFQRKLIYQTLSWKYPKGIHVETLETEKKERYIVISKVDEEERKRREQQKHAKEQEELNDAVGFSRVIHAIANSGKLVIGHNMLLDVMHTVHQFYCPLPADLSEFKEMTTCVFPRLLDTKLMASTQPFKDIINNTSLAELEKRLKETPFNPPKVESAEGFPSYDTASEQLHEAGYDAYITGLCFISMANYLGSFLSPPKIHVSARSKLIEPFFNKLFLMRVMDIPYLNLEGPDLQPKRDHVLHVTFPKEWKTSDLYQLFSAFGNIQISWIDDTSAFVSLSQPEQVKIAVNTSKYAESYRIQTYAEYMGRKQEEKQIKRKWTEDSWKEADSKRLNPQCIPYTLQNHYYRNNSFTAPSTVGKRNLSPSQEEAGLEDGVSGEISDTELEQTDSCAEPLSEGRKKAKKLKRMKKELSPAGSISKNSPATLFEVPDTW
UniProt Q9H074: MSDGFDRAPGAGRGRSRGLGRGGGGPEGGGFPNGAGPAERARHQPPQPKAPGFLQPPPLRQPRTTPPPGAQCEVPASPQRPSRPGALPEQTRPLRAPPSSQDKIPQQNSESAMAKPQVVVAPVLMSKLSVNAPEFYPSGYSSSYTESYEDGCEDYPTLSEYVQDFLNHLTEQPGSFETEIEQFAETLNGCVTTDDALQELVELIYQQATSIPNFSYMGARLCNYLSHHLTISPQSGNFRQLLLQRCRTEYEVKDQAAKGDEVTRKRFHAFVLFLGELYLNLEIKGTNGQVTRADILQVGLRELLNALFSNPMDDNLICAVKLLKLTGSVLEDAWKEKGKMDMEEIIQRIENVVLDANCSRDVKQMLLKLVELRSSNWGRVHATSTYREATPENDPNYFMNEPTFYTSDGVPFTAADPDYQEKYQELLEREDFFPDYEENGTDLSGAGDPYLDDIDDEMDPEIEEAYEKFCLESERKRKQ
UniProt P51160: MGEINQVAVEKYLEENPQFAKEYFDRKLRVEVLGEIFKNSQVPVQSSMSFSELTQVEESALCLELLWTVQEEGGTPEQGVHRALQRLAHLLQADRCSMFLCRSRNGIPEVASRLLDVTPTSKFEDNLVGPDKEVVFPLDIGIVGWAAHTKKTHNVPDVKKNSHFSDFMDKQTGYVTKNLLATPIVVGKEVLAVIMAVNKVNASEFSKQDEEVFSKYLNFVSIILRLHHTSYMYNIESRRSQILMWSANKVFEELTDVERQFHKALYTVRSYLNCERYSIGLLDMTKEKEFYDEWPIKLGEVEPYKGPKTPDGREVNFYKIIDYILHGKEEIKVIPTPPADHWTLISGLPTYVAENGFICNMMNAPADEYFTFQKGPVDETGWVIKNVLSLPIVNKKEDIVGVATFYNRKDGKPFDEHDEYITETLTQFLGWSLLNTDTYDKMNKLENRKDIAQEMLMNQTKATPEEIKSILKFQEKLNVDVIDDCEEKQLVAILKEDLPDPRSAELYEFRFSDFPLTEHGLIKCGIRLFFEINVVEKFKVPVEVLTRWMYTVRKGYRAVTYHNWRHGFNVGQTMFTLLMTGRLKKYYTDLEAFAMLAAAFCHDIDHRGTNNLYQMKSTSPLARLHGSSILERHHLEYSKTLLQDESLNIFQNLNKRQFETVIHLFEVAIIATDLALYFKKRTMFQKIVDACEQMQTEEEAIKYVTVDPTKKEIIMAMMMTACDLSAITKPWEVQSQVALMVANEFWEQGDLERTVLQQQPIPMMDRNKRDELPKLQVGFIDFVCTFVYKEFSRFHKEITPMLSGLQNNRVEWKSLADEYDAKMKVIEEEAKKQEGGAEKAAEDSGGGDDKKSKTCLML
UniProt Q9H813: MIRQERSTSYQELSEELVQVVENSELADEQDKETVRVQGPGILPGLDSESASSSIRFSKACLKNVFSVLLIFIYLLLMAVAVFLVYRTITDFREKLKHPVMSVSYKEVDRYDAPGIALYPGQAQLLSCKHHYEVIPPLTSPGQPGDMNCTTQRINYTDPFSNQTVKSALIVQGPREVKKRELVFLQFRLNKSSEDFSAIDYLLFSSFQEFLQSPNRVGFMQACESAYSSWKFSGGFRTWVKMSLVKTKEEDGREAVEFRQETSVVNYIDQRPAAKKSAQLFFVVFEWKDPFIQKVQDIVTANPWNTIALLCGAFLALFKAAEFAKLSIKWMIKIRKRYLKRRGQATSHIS
UniProt Q7Z2X7: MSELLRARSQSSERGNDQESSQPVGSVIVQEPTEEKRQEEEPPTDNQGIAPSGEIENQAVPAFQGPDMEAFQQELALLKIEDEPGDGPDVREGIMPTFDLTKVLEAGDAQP
UniProt P22234: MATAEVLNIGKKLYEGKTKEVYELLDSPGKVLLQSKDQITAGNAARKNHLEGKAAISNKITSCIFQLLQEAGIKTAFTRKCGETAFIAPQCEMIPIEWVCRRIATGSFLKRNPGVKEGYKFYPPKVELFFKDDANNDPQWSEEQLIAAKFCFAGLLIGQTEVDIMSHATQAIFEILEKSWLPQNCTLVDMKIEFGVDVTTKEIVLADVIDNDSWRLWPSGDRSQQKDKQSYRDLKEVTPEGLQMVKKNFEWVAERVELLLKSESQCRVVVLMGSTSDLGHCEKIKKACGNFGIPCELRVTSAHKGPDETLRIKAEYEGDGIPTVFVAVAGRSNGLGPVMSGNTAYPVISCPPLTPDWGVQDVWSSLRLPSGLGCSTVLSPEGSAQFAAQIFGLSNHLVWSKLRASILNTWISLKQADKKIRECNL
UniProt Q5T2R2: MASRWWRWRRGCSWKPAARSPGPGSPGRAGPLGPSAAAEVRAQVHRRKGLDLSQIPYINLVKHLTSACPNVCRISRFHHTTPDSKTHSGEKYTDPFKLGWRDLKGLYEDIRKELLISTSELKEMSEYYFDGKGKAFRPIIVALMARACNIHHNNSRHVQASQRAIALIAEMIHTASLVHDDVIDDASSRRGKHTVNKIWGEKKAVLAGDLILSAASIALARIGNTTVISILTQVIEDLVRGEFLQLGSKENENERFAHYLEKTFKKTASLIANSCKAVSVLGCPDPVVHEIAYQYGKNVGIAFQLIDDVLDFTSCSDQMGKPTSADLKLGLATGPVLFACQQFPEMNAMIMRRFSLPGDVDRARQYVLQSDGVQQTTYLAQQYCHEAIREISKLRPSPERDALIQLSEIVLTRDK
UniProt Q86SE9: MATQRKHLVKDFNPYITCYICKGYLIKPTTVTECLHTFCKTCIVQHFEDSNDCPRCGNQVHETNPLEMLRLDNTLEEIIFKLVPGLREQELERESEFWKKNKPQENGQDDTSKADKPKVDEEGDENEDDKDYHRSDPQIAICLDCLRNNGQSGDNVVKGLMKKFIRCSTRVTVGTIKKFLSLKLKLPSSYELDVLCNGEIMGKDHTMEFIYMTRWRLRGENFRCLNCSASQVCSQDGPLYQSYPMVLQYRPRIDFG
UniProt Q92968: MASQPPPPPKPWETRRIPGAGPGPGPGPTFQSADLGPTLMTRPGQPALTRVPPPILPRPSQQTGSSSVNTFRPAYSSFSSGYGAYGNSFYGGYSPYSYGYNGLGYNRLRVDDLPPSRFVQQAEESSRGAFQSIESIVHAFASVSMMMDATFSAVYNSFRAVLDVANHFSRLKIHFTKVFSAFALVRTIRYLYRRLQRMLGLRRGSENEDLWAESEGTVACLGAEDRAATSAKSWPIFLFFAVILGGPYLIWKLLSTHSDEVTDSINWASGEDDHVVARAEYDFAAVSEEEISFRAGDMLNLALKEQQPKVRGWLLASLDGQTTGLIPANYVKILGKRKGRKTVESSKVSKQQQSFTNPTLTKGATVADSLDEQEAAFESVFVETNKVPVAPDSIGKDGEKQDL
UniProt O00330, whole entry, looked up: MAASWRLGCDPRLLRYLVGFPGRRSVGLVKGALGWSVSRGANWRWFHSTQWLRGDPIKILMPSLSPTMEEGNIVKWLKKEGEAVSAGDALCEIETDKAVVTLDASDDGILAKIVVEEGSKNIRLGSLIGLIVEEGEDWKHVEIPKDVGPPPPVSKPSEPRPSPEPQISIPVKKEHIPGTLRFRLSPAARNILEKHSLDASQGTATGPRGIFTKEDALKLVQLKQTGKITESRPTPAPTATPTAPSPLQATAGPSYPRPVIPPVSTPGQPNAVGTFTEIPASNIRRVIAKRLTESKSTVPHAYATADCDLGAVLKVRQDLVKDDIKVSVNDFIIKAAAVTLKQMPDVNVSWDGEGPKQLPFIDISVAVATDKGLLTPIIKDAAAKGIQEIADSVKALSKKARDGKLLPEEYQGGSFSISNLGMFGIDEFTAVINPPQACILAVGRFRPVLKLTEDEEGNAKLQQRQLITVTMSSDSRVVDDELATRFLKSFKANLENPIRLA
UniProt P30039: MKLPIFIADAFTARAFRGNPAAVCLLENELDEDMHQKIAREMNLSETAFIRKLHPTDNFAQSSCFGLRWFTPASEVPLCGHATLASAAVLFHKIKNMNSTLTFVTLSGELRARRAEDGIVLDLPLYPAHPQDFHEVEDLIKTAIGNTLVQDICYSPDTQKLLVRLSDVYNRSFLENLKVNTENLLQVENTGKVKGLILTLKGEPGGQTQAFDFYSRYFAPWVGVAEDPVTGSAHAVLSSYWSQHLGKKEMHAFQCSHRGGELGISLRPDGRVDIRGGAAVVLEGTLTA
UniProt Q9BVG4: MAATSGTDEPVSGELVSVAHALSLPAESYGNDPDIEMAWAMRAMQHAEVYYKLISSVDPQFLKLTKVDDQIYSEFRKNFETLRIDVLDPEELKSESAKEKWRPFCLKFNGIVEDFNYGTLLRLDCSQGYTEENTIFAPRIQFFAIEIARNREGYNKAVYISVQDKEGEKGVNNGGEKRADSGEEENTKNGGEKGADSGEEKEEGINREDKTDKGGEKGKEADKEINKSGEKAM
UniProt P30086: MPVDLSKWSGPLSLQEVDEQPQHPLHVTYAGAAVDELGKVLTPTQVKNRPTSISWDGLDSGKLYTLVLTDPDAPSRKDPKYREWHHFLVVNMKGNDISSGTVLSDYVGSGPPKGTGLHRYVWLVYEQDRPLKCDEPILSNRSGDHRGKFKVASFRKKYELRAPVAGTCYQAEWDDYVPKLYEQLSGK
UniProt P51003: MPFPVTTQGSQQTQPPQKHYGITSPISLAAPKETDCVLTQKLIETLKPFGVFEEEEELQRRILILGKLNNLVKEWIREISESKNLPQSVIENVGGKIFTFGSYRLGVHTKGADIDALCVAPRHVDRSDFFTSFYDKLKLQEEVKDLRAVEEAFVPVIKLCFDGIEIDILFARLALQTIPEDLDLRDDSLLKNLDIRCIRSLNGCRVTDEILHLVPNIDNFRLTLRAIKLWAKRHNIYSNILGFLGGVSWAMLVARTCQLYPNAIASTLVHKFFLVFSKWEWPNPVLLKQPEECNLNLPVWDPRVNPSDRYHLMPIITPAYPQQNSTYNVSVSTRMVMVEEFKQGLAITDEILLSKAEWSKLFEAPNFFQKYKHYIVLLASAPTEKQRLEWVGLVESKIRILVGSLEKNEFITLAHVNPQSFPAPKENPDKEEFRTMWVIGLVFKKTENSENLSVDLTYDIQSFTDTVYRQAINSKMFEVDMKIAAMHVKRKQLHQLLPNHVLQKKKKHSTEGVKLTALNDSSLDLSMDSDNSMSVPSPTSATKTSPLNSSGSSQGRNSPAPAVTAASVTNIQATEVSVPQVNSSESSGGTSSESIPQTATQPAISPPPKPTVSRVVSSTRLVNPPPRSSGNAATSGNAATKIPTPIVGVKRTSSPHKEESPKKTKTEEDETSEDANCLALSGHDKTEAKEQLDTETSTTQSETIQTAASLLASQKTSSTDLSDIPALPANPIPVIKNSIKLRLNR
UniProt O75381, whole entry, looked up: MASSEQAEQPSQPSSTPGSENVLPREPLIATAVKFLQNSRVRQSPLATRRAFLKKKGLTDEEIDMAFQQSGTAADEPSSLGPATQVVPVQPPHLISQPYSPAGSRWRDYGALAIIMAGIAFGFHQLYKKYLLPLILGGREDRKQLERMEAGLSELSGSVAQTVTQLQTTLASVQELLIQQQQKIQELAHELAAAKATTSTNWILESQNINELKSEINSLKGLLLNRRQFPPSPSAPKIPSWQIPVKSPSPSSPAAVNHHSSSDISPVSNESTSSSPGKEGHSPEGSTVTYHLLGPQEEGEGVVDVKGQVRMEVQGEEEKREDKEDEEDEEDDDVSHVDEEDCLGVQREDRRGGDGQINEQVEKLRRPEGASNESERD
UniProt Q96GD0: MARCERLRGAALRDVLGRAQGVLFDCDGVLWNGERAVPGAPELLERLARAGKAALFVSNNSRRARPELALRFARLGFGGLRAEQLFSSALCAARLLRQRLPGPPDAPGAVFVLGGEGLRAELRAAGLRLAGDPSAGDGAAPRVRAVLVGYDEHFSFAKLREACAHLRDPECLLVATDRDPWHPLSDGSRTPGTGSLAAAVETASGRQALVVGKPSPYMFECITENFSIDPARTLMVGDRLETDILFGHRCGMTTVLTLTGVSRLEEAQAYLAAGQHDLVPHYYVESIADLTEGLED

Assays:
Assay in all cases: log2 fold change, soluble protein after heating vs DMSO (PISA); higher = thermal stabilisation; K562 cells, 10 uM, 30 min; active = over 0.2 and 3.5 SD of the protein, either way, in both replicates (recomputed)
[1] = compound: COC1=CC=C(C=C1)CN2C=CC3=C2C=C(C=C3)C(=O)NO
Outline: (§1)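 For each measurement, 10 μM compound was applied for 30 min to K562 cells at 2×10^6 cells/mL. Aliquots were heated for 3 min across 48°C-58°C, pooled, and extracted in PBS with 0.5% NP-40 at 4°C; the supernatant after 21,000xg for 90 min was soluble protein. This was quantified by TMTpro 16plex LC-MS/MS with channel sums equalised, and thermal stability was reported relative to control samples from duplicates, on a log2 fold-change scale.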

filanesib = compound: CON(C)C(=O)N1N=C(c2cc(F)ccc2F)S[C@@]1(CCCN)c1ccccc1 [filanesib]
Outline: as §1

zotarolimus = compound: CO[C@H]1C[C@@H]2CC[C@@H](C)[C@@](O)(O2)C(=O)C(=O)N2CCCC[C@H]2C(=O)O[C@H]([C@H](C)C[C@@H]2CC[C@H](n3cnnn3)[C@H](OC)C2)CC(=O)[C@H](C)/C=C(\C)[C@@H](O)[C@@H](OC)C(=O)[C@H](C)C[C@H](C)/C=C/C=C/C=C/1C [zotarolimus]
Outline: as §1

idasanutlin = compound: COc1cc(C(=O)O)ccc1NC(=O)[C@@H]1N[C@@H](CC(C)(C)C)[C@](C#N)(c2ccc(Cl)cc2F)[C@H]1c1cccc(Cl)c1F [idasanutlin]
Outline: as §1

alisertib = compound: COc1cc(Nc2ncc3c(n2)-c2ccc(Cl)cc2C(c2c(F)cccc2OC)=NC3)ccc1C(=O)O [alisertib]
Outline: as §1

[2] = compound: COc1cc2nc(-c3cc(F)ccc3O)nc(N[C@@H]3CNC[C@H]3C(C)(C)O)c2cc1OC
Outline: as §1

gefitinib = compound: COc1cc2ncnc(Nc3ccc(F)c(Cl)c3)c2cc1OCCCN1CCOCC1 [gefitinib]
Outline: as §1

[3] = compound: COc1cccc2cc(-c3nc([C@H]4CC[C@H](C(=O)O)CC4)n4ncnc(N)c34)[nH]c12
Outline: as §1

lapatinib = compound: CS(=O)(=O)CCNCc1ccc(-c2ccc3ncnc(Nc4ccc(OCc5cccc(F)c5)c(Cl)c4)c3c2)o1 [lapatinib]
Outline: as §1

pictilisib = compound: CS(=O)(=O)N1CCN(Cc2cc3nc(-c4cccc5[nH]ncc45)nc(N4CCOCC4)c3s2)CC1 [pictilisib]
Outline: as §1

Measured: log2 fold change

PARN (UniProt O95453)
inactive: [1] 0.001 | filanesib -0.015 | zotarolimus -0.009 | idasanutlin -0.028 | alisertib 0.001 | [2] 0.051 | gefitinib -0.009 | [3] 0.04 | lapatinib -0.028 | pictilisib -0.036

PAIP1 (UniProt Q9H074)
inactive: [1] 0.001 | filanesib -0.03 | zotarolimus 0.009 | idasanutlin -0.031 | alisertib -0.051 | [2] -0.023 | gefitinib -0.019 | [3] -0.009 | lapatinib 0.029 | pictilisib 0.016

PDE6C (UniProt P51160)
inactive: [1] 0.18 | filanesib -0.128 | zotarolimus 0.143 | idasanutlin -0.241 | alisertib -0.157 | [2] -0.14 | gefitinib -0.071 | [3] 0.178 | lapatinib 0.044

PACC1 (UniProt Q9H813)
inactive: [1] -0.04 | filanesib -0.089 | zotarolimus 0.043 | idasanutlin -0.105 | alisertib -0.015 | [2] 0.137 | gefitinib 0.024 | [3] 0.079 | lapatinib 0.029

PCYOX1 (UniProt Q9UHG3)
inactive: [1] -0.047 | filanesib -0.034 | zotarolimus -0.02 | idasanutlin -0.033 | alisertib -0.038 | [2] 0.015 | gefitinib 0.001 | [3] 0.052 | lapatinib -0.016 | pictilisib -0.014

PACSIN3 (UniProt Q9UKS6)
inactive: [1] 0.125

PDIA3 (UniProt P30101)
inactive: [1] 0.004 | filanesib 0.081 | zotarolimus 0.074 | idasanutlin 0.053 | alisertib -0.108 | [2] -0.012 | gefitinib 0.001 | [3] -0.102 | lapatinib 0.064 | pictilisib -0.119

PCYOX1L (UniProt Q8NBM8)
inactive: [1] -0.001 | filanesib 0.048 | zotarolimus -0.034 | idasanutlin -0.04 | alisertib -0.08 | [2] -0.041 | gefitinib 0.04 | [3] 0.039 | lapatinib 0.037 | pictilisib 0.021

PDCD11 (UniProt Q14690)
inactive: [1] 0.051 | filanesib -0.136 | zotarolimus 0.014 | idasanutlin -0.262 | alisertib -0.032 | [2] 0.026 | gefitinib 0.045 | [3] 0.145 | lapatinib -0.065 | pictilisib 0.071

PAGE2 (UniProt Q7Z2X7)
inactive: [1] -0.035 | filanesib 0.243 | zotarolimus 0.102 | idasanutlin 0.143 | alisertib -0.085 | [2] -0.196 | gefitinib 0.032 | [3] 0.11 | lapatinib -0.136 | pictilisib -0.03

PDK1 (UniProt Q15118)
inactive: [1] -0.051 | filanesib -0.03 | zotarolimus -0.045 | idasanutlin -0.056 | alisertib -0.151 | [2] 0.189 | gefitinib -0.026 | [3] 0.03 | lapatinib -0.056 | pictilisib 0.139

PAICS (UniProt P22234)
inactive: [1] 0.001 | filanesib -0.018 | zotarolimus -0.037 | idasanutlin -0.012 | alisertib -0.047 | [2] 0.03 | gefitinib 0.002 | [3] 0.018 | lapatinib -0.057 | pictilisib 0.034

PDIK1L (UniProt Q8N165)
inactive: [1] -0.014 | filanesib 0.112 | zotarolimus -0.059 | idasanutlin 0.001 | alisertib 0.099 | [2] -0.127 | gefitinib 0.012 | [3] 0.092 | lapatinib 0.086

PDSS1 (UniProt Q5T2R2)
inactive: [1] -0.043 | filanesib 0.039 | zotarolimus 0.153 | idasanutlin 0.093 | alisertib 0.026 | [2] -0.056 | gefitinib 0.035 | [3] 0.025 | lapatinib -0.006 | pictilisib 0.139

PCGF5 (UniProt Q86SE9)
inactive: [1] 0.11 | filanesib 0.059

PEX13 (UniProt Q92968)
inactive: [1] 0.028 | filanesib -0.072 | zotarolimus -0.129 | idasanutlin -0.019 | alisertib -0.037 | gefitinib -0.045 | [3] 0.115 | lapatinib -0.013 | pictilisib 0.009
active: [2] -0.318

Two records drawn at random from those above, as already listed:
PDSS1 (UniProt Q5T2R2)
inactive: [1] -0.043 | filanesib 0.039 | zotarolimus 0.153 | idasanutlin 0.093 | alisertib 0.026 | [2] -0.056 | gefitinib 0.035 | [3] 0.025 | lapatinib -0.006 | pictilisib 0.139

PCYOX1L (UniProt Q8NBM8)
inactive: [1] -0.001 | filanesib 0.048 | zotarolimus -0.034 | idasanutlin -0.04 | alisertib -0.08 | [2] -0.041 | gefitinib 0.04 | [3] 0.039 | lapatinib 0.037 | pictilisib 0.021

Remaining list, next part:

PECAM1 (UniProt P16284)
inactive: [1] 0.018 | filanesib 0.114 | zotarolimus -0.002 | idasanutlin -0.029 | alisertib -0.053 | [2] 0.025 | gefitinib 0.02 | [3] 0.063 | lapatinib -0.021 | pictilisib 0.12

PCBP2 isoform 3 (UniProt Q15366)
inactive: [1] 0.138 | filanesib -0.031 | zotarolimus 0.048 | idasanutlin -0.064 | alisertib 0.012 | [2] -0.092 | gefitinib 0.011 | [3] 0.002 | lapatinib 0.003 | pictilisib -0.013

PDHX (UniProt O00330)
inactive: [1] -0.109 | filanesib 0.162 | zotarolimus -0.001 | idasanutlin 0.125 | alisertib -0.08 | [2] -0.095 | gefitinib -0.096 | [3] -0.184 | lapatinib 0.235 | pictilisib -0.088

PAK1IP1 (UniProt Q9NWT1)
inactive: [1] -0.111 | filanesib 0.283 | zotarolimus 0.02 | idasanutlin 0.167 | alisertib -0.104 | [2] -0.056 | gefitinib -0.082 | [3] -0.196 | lapatinib 0.127 | pictilisib -0.061

PBLD (UniProt P30039)
inactive: [1] -0.132 | filanesib -0.055 | zotarolimus -0.078 | idasanutlin -0.089 | alisertib 0.025 | [2] 0.035 | gefitinib 0.012 | [3] 0.028 | lapatinib -0.03

PALM3 (UniProt A6NDB9)
inactive: [1] 0.06 | filanesib 0.076 | zotarolimus 0.036 | idasanutlin 0.013 | alisertib -0.121 | [2] 0.02 | gefitinib 0.012 | [3] 0.046 | lapatinib 0.045 | pictilisib 0.116

PBDC1 (UniProt Q9BVG4)
inactive: [1] -0.068 | filanesib 0.007 | zotarolimus -0.041 | idasanutlin -0.034 | alisertib -0.058 | [2] 0.073 | gefitinib -0.025 | [3] -0.087 | lapatinib -0.006 | pictilisib 0.03

PCSK9 (UniProt Q8NBP7)
inactive: [1] -0.035 | filanesib 0.021 | zotarolimus 0.105 | idasanutlin 0.112 | alisertib -0.007 | [2] 0.083 | gefitinib 0.022 | [3] -0.03 | lapatinib 0.078 | pictilisib 0.018

PAK2 (UniProt Q13177)
inactive: [1] -0.004 | filanesib -0.021 | zotarolimus 0.012 | idasanutlin -0.052 | alisertib 0.009 | [2] -0.006 | gefitinib -0.034 | [3] 0.047 | lapatinib -0.012 | pictilisib 0.003

PEBP1 (UniProt P30086)
inactive: [1] -0.027 | filanesib 0.025 | zotarolimus -0.032 | idasanutlin 0.023 | alisertib -0.058 | [2] -0.021 | gefitinib -0.003 | [3] 0.015 | lapatinib 0.008 | pictilisib -0.056

PDS5A (UniProt Q29RF7)
inactive: [1] 0.076 | filanesib -0.316 | zotarolimus -0.137 | idasanutlin -0.012 | alisertib 0.067 | [2] 0.043 | gefitinib -0.125 | [3] -0.19 | lapatinib -0.072 | pictilisib -0.014

PAPOLA (UniProt P51003)
inactive: [1] -0.032 | filanesib -0.063 | zotarolimus 0.02 | idasanutlin -0.078 | alisertib -0.044 | [2] -0.002 | gefitinib 0.003 | [3] 0.036 | lapatinib -0.021 | pictilisib 0.077

PAK4 (UniProt O96013)
inactive: [1] -0.106 | filanesib 0.068 | zotarolimus 0.03 | idasanutlin -0.021 | alisertib 0.153 | [2] 0.195 | gefitinib 0 | [3] 0.075 | lapatinib -0.047 | pictilisib 0.072

PEX14 (UniProt O75381)
inactive: [1] 0.096 | filanesib -0.021 | zotarolimus 0.001 | idasanutlin 0.014 | alisertib -0.004 | [2] 0.006 | gefitinib -0.011 | [3] 0.013 | lapatinib -0.026 | pictilisib -0.007

PDXP (UniProt Q96GD0)
inactive: [1] -0.01 | filanesib -0.058 | zotarolimus -0.018 | idasanutlin 0.017 | alisertib -0.089 | [2] 0.03 | gefitinib -0.004 | [3] 0.059 | lapatinib -0.03 | pictilisib 0.025

PEF1 (UniProt Q9UBV8)
inactive: [1] -0.009 | filanesib -0.038 | zotarolimus 0.041 | idasanutlin -0.009 | alisertib -0.008 | [2] -0.089 | gefitinib -0.011 | [3] 0.058 | lapatinib 0.032 | pictilisib -0.076
